# Assay results: PubChem BioAssay AID1259354 (Paczesny and Yang Labs, IUPUI and University of Michigan, 2018)
# By UniProt entry, the sequences of proteins in these tests, tags left out. Where a name states a change or a piece, a line headed by the entry shows the natural chain unless it says otherwise.
# UniProt Q01638: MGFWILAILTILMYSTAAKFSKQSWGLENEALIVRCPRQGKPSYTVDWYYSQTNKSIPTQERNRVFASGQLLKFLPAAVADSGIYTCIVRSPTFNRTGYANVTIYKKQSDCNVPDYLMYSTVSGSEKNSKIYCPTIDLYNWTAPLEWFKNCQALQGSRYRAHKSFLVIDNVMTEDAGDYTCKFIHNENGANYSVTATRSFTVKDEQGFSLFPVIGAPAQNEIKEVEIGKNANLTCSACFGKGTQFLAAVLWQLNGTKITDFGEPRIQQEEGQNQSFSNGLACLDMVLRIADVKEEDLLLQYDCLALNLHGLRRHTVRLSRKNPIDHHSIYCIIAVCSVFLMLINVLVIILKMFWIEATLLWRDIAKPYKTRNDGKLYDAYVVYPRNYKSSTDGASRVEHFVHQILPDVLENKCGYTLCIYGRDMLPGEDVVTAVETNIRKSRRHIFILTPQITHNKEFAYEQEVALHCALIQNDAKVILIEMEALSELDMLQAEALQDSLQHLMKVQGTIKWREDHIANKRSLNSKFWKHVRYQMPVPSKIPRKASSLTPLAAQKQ
# Where “and” joins values, the source holds several entries; their conditions need not be identical. Equal values may be shown once. Hit rate of the full screen: of about 78,000 compounds, about 1,800 (2.3%) were called active. Inconclusive means that the source gave no clear call. Such entries were picked first, then a sample of the others. Rule as the data show it: active = inhibition above about 30%; inconclusive = mostly about 10% to 28%; inactive = weaker than that.
# Target: Interleukin-1 receptor-like 1 (Homo sapiens) (UniProt Q01638)
# Test: blocks human ST2 binding to IL-33, primary screen, biochemical, AlphaLISA (AID 1259354)
# Settings: AlphaLISA ST2-Fc/biotin-IL-33 interaction, 1 h; at 17 µM, hits give high values
row,SMILES,inhibition
1,Cc1c(NC(=O)CC(C)C)cccc1-c1nc2ccccc2s1,inactive
2,CN(C)c1nc(Oc2ccc(/C=N\O)cc2)nc(N(C)C)n1,inactive
3,CC(=O)Nc1cc(C(=O)NCc2ccc(C)c(F)c2)cc2ncn(CCc3ccccn3)c12,inconclusive: 15%
4,CC(=O)N1CCC(N2CC[C@H](c3nnc(-c4ccco4)o3)C2)CC1,inconclusive: 16%
5,Cc1ncc([N+](=O)[O-])n1S(=O)(=O)c1ccc(F)cc1,inconclusive: 20%
6,Cc1ccc(CN2C(=O)/C(=C/C(=O)NCc3ccc4c(c3)OCO4)Sc3ccccc32)cc1,inactive
7,CN1CCC2(CC1)CN(C(=O)c1ccc3nc[nH]c3c1)CCCN2C,inconclusive: 17%
8,FC(F)(F)c1ccc(-c2noc(CN3CCC(N4CCSCC4)CC3)n2)cc1,inconclusive: 13%
9,CCC(C)Sc1nc(O)cc(=O)n1-c1ccccc1 (stereo unspecified),inactive
10,CC(=O)Nc1cccc(S(=O)(=O)N2CCC(CO)(CCc3ccccc3)CC2)c1,inactive
11,O=C(COC(=O)c1cccc(Br)c1)c1ccc(Br)cc1,inactive
12,Cc1cccnc1N1CCN(CC2CCOC(C)(C)C2)CC1 (stereo unspecified),inconclusive: 11%
13,OCc1nc2ccc(/C=C/c3ccccc3)cc2[nH]1,inconclusive: 14%
14,CCOc1ccc2c(c1)CN(c1c(C)cccc1C)CO2,inactive
15,Cc1nn(-c2ccccn2)c2c1C(=O)/C(=C\Nc1ccccc1Cl)CC2,active: 31%
16,Cc1cnc(SCCN2CCOCC2)nc1C1CCCN(C(=O)c2ccc3cc[nH]c3c2)C1 (stereo unspecified),inconclusive: 14%
17,COc1ccc(S(=O)(=O)N2CCC(n3c(C)nc4cccnc43)CC2)cc1,inconclusive: 16%
18,Cc1cccc(N2CCN(C(=O)CC3C(=O)NCCN3Cc3ccccc3F)CC2)n1 (stereo unspecified),inactive
19,c1ccc(CCCc2noc(-c3ccc(N4CCCO4)nc3)n2)cc1,inconclusive: 25%
20,Cc1cccc(N2CCN(C(=O)CCN3Cc4ccccc4OC(c4ccccc4F)C3)CC2)n1 (stereo unspecified),inconclusive: 12%
21,Cc1ccc(NC(=O)c2cnc3scc(C)n3c2=O)cc1F,inactive
22,O=C(O)c1cc(-c2cccnc2)cc(S(=O)(=O)N2CCOCC2)c1,inconclusive: 17%
23,CCN1C(=O)CC(N2CCC(C(N)=O)(N3CCCCC3)CC2)C1=O (stereo unspecified),inconclusive: 10%
24,N#C/C(=C\c1ccc(O)cc1O)c1nc2ccccc2[nH]1,inactive

# Shown with bars between the fields: entries from further up.
row | SMILES | inhibition
14 | CCOc1ccc2c(c1)CN(c1c(C)cccc1C)CO2 | inactive
21 | Cc1ccc(NC(=O)c2cnc3scc(C)n3c2=O)cc1F | inactive

# Taken from above:
# In inhibition, OCc1nc2ccc(/C=C/c3ccccc3)cc2[nH]1 is listed with inconclusive: 14%
# In inhibition, FC(F)(F)c1ccc(-c2noc(CN3CCC(N4CCSCC4)CC3)n2)cc1 is listed with inconclusive: 13%

# Continued:

row,SMILES,inhibition
1,O=C(c1ccccc1C(F)(F)F)N1CCN=C1SCc1ccccc1,inactive
2,Cc1c(NC(=O)COc2ccc(C(C)C)cc2)cccc1C(=O)O,inconclusive: 10%
3,Cc1nn(C(=O)COc2ccccc2[N+](=O)[O-])c(C)c1Sc1ccc(Cl)cc1,inconclusive: 18%
4,O=C(N[C@H]1C[C@H]2C(=O)NCC(=O)N2C1)c1ccc2[nH]c3c(c2c1)CCCC3,inconclusive: 16%
5,Cc1ccc(N2C(=O)Nc3ccc(Br)cc3C2(O)C(=O)NC2CCCCC2)cc1C (stereo unspecified),inactive
6,CCNC(=O)c1ccc(N2CCN(C3CCOCC3)CC2)nc1,inconclusive: 11%
7,CC(=O)Nc1cccc(N(C)C)c1,inactive
8,Cc1ccc(-c2noc([C@@H]3C[C@H](NC(=O)Nc4cccc(F)c4)CN3C)n2)cc1,inactive
9,CSc1nc(N)nc(SCc2c(F)cccc2Cl)c1C#N,inconclusive: 13%
10,COc1ccc(C(=O)N2C[C@@H](O)[C@H](NCCN3CCNC3=O)C2)cc1,inconclusive: 16%
11,CCCS(=O)(=O)N1CCC(C(=O)NCCCN2CCCC2=O)CC1,inconclusive: 11%
12,NC1=NCCN1c1ccccc1,inactive
13,CCC(Sc1nnc2c3ccccc3n(C)c2n1)C(=O)Nc1ccccc1C#N (stereo unspecified),inactive
14,CCc1ncc(-c2nccn2CC(OC)c2cccs2)cn1 (stereo unspecified),inactive
15,COc1ccc2nc3oc(C(=O)Nc4ccc(F)c(Cl)c4)cc3cc2c1,inconclusive: 20%
16,Cc1ccc(Nc2c(-c3ccccn3)nc3cccc(C)n23)cc1,inconclusive: 18%
17,COc1cc(OC)c(OC)cc1/C=C1\SC(N2CCCC2)=NC1=O,inconclusive: 13%
18,CCOc1cc(/C=C2/C(=O)N(c3ccccc3)N=C2C)ccc1O,inactive
19,CC1Cc2cc(/C=C3/C(=O)NN(c4ccc(Br)cc4)C3=O)ccc2O1 (stereo unspecified),inconclusive: 19%
20,COc1cc(NC(=O)CCC2CCCN(C(=O)CN3CCCC3=O)C2)cc(OC)c1 (stereo unspecified),inconclusive: 19%
21,Cc1c(C(=O)NC2CCCCCC2)cccc1[N+](=O)[O-],inactive
22,Cc1nc2nc(SCC(=O)NC(C)(C)C)nn2c(C)c1Cc1ccc(F)cc1Cl,inactive
23,Cc1cccc(-c2cnc(C)nc2C2CCCN(C(=O)c3c(F)cccc3F)C2)c1 (stereo unspecified),inconclusive: 20%
24,C[C@@H]1CC(=O)C2=C(C1)C[C@@H](O)[C@@]1(O)C2C(=O)c2cccc(O)c2[C@@H]1O (stereo partly specified),inconclusive: 13%

# Not a retest: an excerpt of the list.
row,SMILES,inhibition
7,CN1CCC2(CC1)CN(C(=O)c1ccc3nc[nH]c3c1)CCCN2C,inconclusive: 17%
8,FC(F)(F)c1ccc(-c2noc(CN3CCC(N4CCSCC4)CC3)n2)cc1,inconclusive: 13%
9,CCC(C)Sc1nc(O)cc(=O)n1-c1ccccc1 (stereo unspecified),inactive
10,CC(=O)Nc1cccc(S(=O)(=O)N2CCC(CO)(CCc3ccccc3)CC2)c1,inactive
11,O=C(COC(=O)c1cccc(Br)c1)c1ccc(Br)cc1,inactive

# Further entries.

row,SMILES,inhibition
1,CC(C)Oc1cccc(-c2ccc3nc(CO)[nH]c3c2)c1,inconclusive: 21%
2,Cn1cnc([N+](=O)[O-])c1Sc1cn2c(n1)CCC2,inconclusive: 10%
3,O=C(CCNC1CCN(Cc2ccccc2)C1)Nc1cccnc1 (stereo unspecified),inconclusive: 11%
4,OCCn1c(-c2ccc(I)cc2)csc1=Nc1cccc(Cl)c1,inconclusive: 18%
5,COc1ccc(C2C=C(Nc3ccc(C)cc3)C(=O)N2c2ccc(C)cc2)c(OC)c1 (stereo unspecified),inconclusive: 17% and inconclusive: 15%
6,Cc1cc(C)c2[nH]c(C(=O)NCCn3c(C)cc(C)nc3=O)c(C)c2c1,inactive
7,CC1CCN(CCC(=O)N2CCCc3c2c(=O)oc2ccc(O)cc32)CC1,inconclusive: 17%
8,CN(C)C(=O)CSc1nnc(-c2cccc(F)c2)n1-c1ccccc1,inconclusive: 11%
9,Nc1nc(C23C[C@@H]4C[C@@H](CC(Cl)(C4)C2)C3)cs1,inconclusive: 25%
10,O=C(c1cc[n+]([O-])cc1)N1CCCC(CO)(Cc2ccccc2)C1 (stereo unspecified),inconclusive: 13%
11,Cc1ccc(Cn2ccc(NC(=O)c3cc(C(C)C)on3)n2)cc1,inconclusive: 12%
12,O=C1C(=O)N(CCc2ccccc2)C(c2ccc3c(c2)OCO3)C1=C(O)c1ccccc1 (stereo unspecified),inactive
13,CC(C1CC1)N(C(=O)c1ccc(N)cc1)c1ccccc1 (stereo unspecified),inactive
14,Cc1cc(C(=O)O)ccc1-c1ccc(C(C)N2CCOCC2)cc1 (stereo unspecified),inactive
15,Cc1nnc(-c2cccc(-c3cc(F)c4c(c3)CC(CN)O4)c2)s1 (stereo unspecified),inactive
16,CCC(C)Nc1ncnc2c1cnn2-c1ccc(OC)cc1 (stereo unspecified),inconclusive: 14%
17,O=[N+]([O-])c1cccc(-c2nc(-c3ccc(Br)cc3)no2)c1,inactive
18,O=C(O)c1cc(C(=O)O)cc(N2C(=O)C3C4c5ccccc5C(c5ccccc54)C3C2=O)c1 (stereo unspecified),inactive
19,CC(=O)Nc1ccc(S(=O)(=O)Nc2nc3ccccc3nc2Nc2cccc(O)c2)cc1,inactive
20,CN(CCNC(=O)c1ccc2c(c1)CCO2)S(C)(=O)=O,inconclusive: 13%
21,COCCn1c(CNC(=O)Cc2ccccc2)nc2cccnc21,inconclusive: 10%
22,COc1ccc2nc(N3CCC(C(=O)NCc4ccccn4)CC3)sc2c1,inactive
23,COc1ccccc1NC(=O)c1ccccc1[N+](=O)[O-],inconclusive: 16%
24,O=C(Nc1ccc(F)c(Cl)c1)C1CCCN(S(=O)(=O)c2cnc[nH]2)C1 (stereo unspecified),inactive

row,SMILES,inhibition
1,Cc1ccc(S(=O)(=O)N2CCN(c3nc(C)cc(N4CCN(C)CC4)n3)CC2)c(C)c1,inconclusive: 14%
2,CC1=NN(c2cccc(Cl)c2)C(=O)/C1=C\c1ccco1,active: 44%
3,Fc1cccc(CN2CCc3c([nH]c4ccccc34)C2)c1,inactive
4,CC1=C[C@@H](CNC(=O)Nc2ccccc2)[C@H](C(C)C)C[C@H]1CC(=O)N(C)Cc1cccnc1,inactive
5,O=C(CSc1ccc(Cl)cc1)Nc1cccc([N+](=O)[O-])c1,inconclusive: 20%
6,CC(=O)N1CCc2c(sc(NC(=O)C3COc4ccccc4O3)c2-c2nc3ccccc3s2)C1 (stereo unspecified),inconclusive: 14%
7,COCCCNc1nc2c(c(=O)n(Cc3cccc(Br)c3)c(=O)n2C)n1C,inconclusive: 22%
8,COC(=O)Cc1[nH]nc2c1C(C(C)C)C(C#N)=C(N)O2 (stereo unspecified),inactive
9,CCCn1c(C(C)NC(C)=O)nc2ccccc21 (stereo unspecified),inconclusive: 13%
10,CNC(=O)c1cccc(-n2cnc(-c3ccccc3)c2)c1,inconclusive: 22%
11,CCn1cc(CN2CC(=O)N(C(C)C)CC(OCc3cc(OC)cc(OC)c3)C2)c(C)n1 (stereo unspecified),inconclusive: 11%
12,COc1cccc(CN2CCN(Cc3ccc(OC)c(OC)c3OC)CC2)c1OC,inactive
13,Cc1cc(OC(=O)c2c(C)c(C)c(O)c(C)c2O)cc(O)c1C(=O)NC(C(=O)O)C(C)O (stereo unspecified),inconclusive: 16%
14,COc1ccc(N2CCN(c3ccc([N+](=O)[O-])c4cccnc34)CC2)c([N+](=O)[O-])c1,active: 55%
15,Cc1cc(C)cc(N2CCN(C(=O)CC3NC(=O)NC3=O)CC2=O)c1 (stereo unspecified),inactive
16,O=C(NCC1CCCO1)NC1(C(F)(F)F)Oc2ccc(Cl)cc2O1 (stereo unspecified),inactive
17,CC1CCC2(CC1)C(C#N)C(=O)NC(=O)C2C#N (stereo unspecified),inconclusive: 10%
18,Cc1cccc(O)c1N=Cc1cc(Br)cc(Cl)c1O,inactive
19,CC(C)NC(=O)[C@@H]1C[C@H](N)CN1C(=O)CCCc1ccccc1,inconclusive: 18%
20,Cc1ccc(C)c(NC(=O)c2ccoc2C)c1,inactive
21,CN1CCC(NC[C@H]2O[C@@H](CO)[C@@H](O)[C@H]2N2CCN(c3ccccn3)CC2)CC1,inconclusive: 11%
22,O=S(=O)(NCC1OCCc2ccccc21)c1ccccc1 (stereo unspecified),inconclusive: 12%
23,O=C(CSc1nc2c([nH]c3ccccc32)c(=O)n1-c1ccc(Cl)cc1)N1CCCC1,inconclusive: 10%
24,CC(C)c1ccc(Nc2c(-c3ccc(O)cc3)nc3nc[nH]n23)cc1,inconclusive: 13%
